Values of other authors in patent US20170068777A1, “METHODS OF IDENTIFYING AND F[…] COMPOUNDS THAT MODULATE PHENOTYPE-RELATED TARGETS” (Tufts University, priority 2015, published 2017).
At least one structure is not confirmed: it was looked up by name or label, or the drawing left a doubt.

Conditions: mouse, rat, and rabbit models

CC1=C(O)C(=O)C=C2C1=CC=C1[C@@]2(C)CC[C@@]2(C)[C@@H]3C[C@](C)(C(=O)O)CC[C@]3(C)CC[C@]12C [Celastrol]
effect on triglyceride levels: lower triglyceride levels
